Laboratory results published in PubChem BioAssay AID504467 (National Center for Advancing Translational Sciences (NCATS), 2011).
Out of some 330,000 compounds screened, about 7,700 (2.3%) were called active. The shares of active, inactive and inconclusive entries below differ from those in the screen. Calls follow the shape of the dose curve; as a rule, active = well fitted inhibition curve with a large enough effect; inconclusive = small, poorly fitted or top-dose-only effect, or effect the other way; inactive = flat fitted curve, though single readings scatter. Potencies of inconclusive entries are doubtful fits and often do not repeat.

assay: qHTS screen for small molecules that inhibit ELG1-dependent DNA repair in human embryonic kidney (HEK293T) cells expressing luciferase-tagged ELG1; details: HEK293T ELG1-luciferase reporter, luminescence, 16 h, DNA damage induced by 5-fluorouridine; series mostly up to 46.1 µM; also: nearly all actives have a fitted effect of over 55% in size
Excerpt: NIH Molecular Libraries Probe Production Network [MLPCN] NIH Chemical Genomics Center [NCGC] MLPCN Grant: 1 R03 MH092164-01 Assay Provider: Kyungjae Myung, NHGRI, NIH Keywords: MLPCN, qHTS, NCGC, genotoxicity, cancer Assay Overview: Cancer cells divide rapidly compared to normal cells in the body. During cell division, cancer cells need to duplicate their genome by DNA replication. The failure of genome duplication leads to cancer cells' death. Therefore, inhibitors of DNA replication could specifically kill cancer cells. Based on this concept, many chemotherapeutic agents were developed and have been used to treat cancer patients. However, there are a limited number of agents available in the clinical setting, and some of those that do exist have low efficacy and severe side effects. Therefore, if we can find the compounds that effectively block DNA replication either by directly damaging DNA or by inhibiting other cellular mechanisms, the options for cancer treatment will be broadened. With this in mind, we developed a quantitative high-throughput ELG1-luciferase reporter gene assay. Small molecules that specifically block ELG1 function in response to DNA damage can be identified by monitoring the suppression of luciferase activity. Since ELG1 defines a pathway for repairing DNA damage, agents blocking ELG1 function can be used to sensitize cancer cells to chemotherapeutic agents whose mechanism of action involves the induction of DNA damage.
Assay Protocol Summary: For genotoxicity screening, 2,000 cells in 4 uL/well were dispensed into white, solid-bottom 1536-well plates using a solenoid-based dispenser. Following transfer of 1 uL 5-Fluorouridine and 23 nL compound or DMSO vehicle by a pin tool, the plates were incubated 16 hr at 37 °C and 5% CO2. 5 ul ONE-Glo (Promega) was then added to each plate and following a 30 min incubation at room temperature, luciferase activity was quantified on a ViewLux CCD-based plate reader.
Potency is read from the fitted curve at half-maximal effect.

| SMILES | Potency |
| --- | --- |
| CCOC(=O)COc1ccc(S(=O)(=O)N2CCN(C(=O)OCC)CC2)cc1 | inactive |
| O=C(NCc1ccccc1)c1ccc2nccnc2c1 | inconclusive: 20.6 µM [inhibitor, partial curve] |
| COc1cccc2cc(-c3nnc(SCC(=O)Nc4nc(C)cs4)n3C)oc12 | inconclusive: 32.6 µM [inhibitor, single point] |
| CCS(=O)(=O)N1CCN=C1SCc1ccccc1 | inactive |
| O=C(Nc1ccccc1Cl)Nc1cccc2cccnc12 | inconclusive: 18.3 µM [activator, partial curve] |
| CCOc1ccc2c(c1)c(=O)c(S(=O)(=O)c1ccc(CC)cc1)cn2C | inactive |
| COc1ccc(-n2ncc3c(NCCN4CCOCC4)ncnc32)cc1 | inconclusive: 10.3 µM [activator, partial curve] |
| Cc1nc2ccccc2n1CC(=O)N/N=C\C=C\c1ccccc1 | inconclusive: 14.1 µM [activator, single point] |
| COc1ccccc1N1CCN(c2ncnc3nc[nH]c23)CC1 | inconclusive: 20.6 µM [activator, single point] |
| CC(=O)c1c(N)[nH]c(-c2ccccc2)nc1=S | inactive |
| O=C(c1cccc(S(=O)(=O)N2CCc3ccccc3C2)c1)N1CCN(c2ccccc2)CC1 | inconclusive: 25.9 µM [inhibitor, partial curve] |
| Cc1ccc(NC(=O)COc2ccccc2C(=O)NCCN(C)C)cc1 | inconclusive: 6.51 µM [inhibitor, partial curve, poor fit] |
| CCOc1ccc(C2=NNC(c3cccs3)=Nc3ccc(OC)cc32)cc1OCC | inconclusive: 20.6 µM [inhibitor, single point] |
| Cn1c(COc2ccc(C(=O)O)cc2)nc2ccccc21 | inactive |
| CC(C)(C)c1ccc(-c2noc(-c3ccc4c(c3)CCO4)n2)cc1 | inconclusive: 29.1 µM [activator, single point] |
| Cc1ccc(SC(C)c2nc(-c3ccccc3)no2)cc1 (stereo not given) | inconclusive: 14.6 µM [activator, partial curve, poor fit] |
| CS(=O)(=O)N(CCC#N)Cc1ccc(/C=C2\C(=O)Nc3ccccc32)o1 | active: 7.3 µM |
| C/C(=N\NC(=O)c1c[nH]c2ccccc12)c1ccco1 | inconclusive: 10.3 µM [activator, partial curve] |
| COc1ccccc1C(=O)N/N=C(\C)c1ccc(NC(=O)Cc2ccccc2)cc1 | inactive |
| COc1ccc(NC(=O)N(Cc2ccc3c(c2)OCO3)C2CC(=O)N(c3ccc(OC)cc3)C2=O)cc1 (stereo not given) | inconclusive: 9.2 µM [inhibitor, partial curve, poor fit] |
| C=CCOc1ccc(C2/C(=C(/O)c3ccc(OC)cc3)C(=O)C(=O)N2CCN2CCNCC2)cc1 (stereo not given) | inactive |
| Cc1ccc2cc(C)c3nnc(SCC(=O)N4CCN(C(=O)c5ccco5)CC4)n3c2c1 | inconclusive: 16.4 µM [inhibitor, partial curve, poor fit] |
| O=C(c1ccccc1)N1CCN(Cc2ccccc2C(F)(F)F)CC1 | inactive |

| SMILES | Potency |
| --- | --- |
| CCCCCCCCNC(=O)/C(C#N)=C/c1ccccc1[N+](=O)[O-] | inactive |
| Cc1occc1C(=O)N/N=C/c1c[nH]c2ccccc12 | inconclusive: 20.6 µM [activator, partial curve] |
| Cc1ccccc1-c1cc(C(=O)NCc2ccc(OC(F)(F)F)cc2)n(CC2CC(c3cccnc3)=NO2)n1 (stereo not given) | active: 18.3 µM |
| Cc1cccc(C2NC(c3cccc(C)c3)C(C)C(=O)C2C)c1 (stereo not given) | inactive |
| COc1ccccc1-c1cc(C(=O)N2CCc3ccccc3C2)c2ccccc2n1 | active: 13 µM |
| CCc1ccc(NC(=O)C(=O)NCc2ccccn2)cc1 | inconclusive: 20.6 µM [activator, partial curve] |
| Cc1ccc(NC(=O)CN2C(=O)COc3ccc(S(=O)(=O)N4CCOCC4)cc32)cc1F | inconclusive: 29.1 µM [activator, partial curve, poor fit] |
| Cc1ccc2nc3c(cc(C(=O)NCc4ccco4)c(=N)n3Cc3ccco3)c(=O)n2c1 | inconclusive: 23.1 µM [inhibitor, partial curve] |
| Cc1cccc(-n2cc[nH]c2=S)c1 | inactive |
| CCOC(=O)C1(Cc2ccccc2)CCN(Cc2cnc(N3CCOCC3)s2)CC1 | inconclusive: 9.2 µM [inhibitor, partial curve, poor fit] |
| O=C(c1ccc(COc2ccc(Cl)cc2)cc1)N1CCCCC1 | inconclusive: 29.1 µM [activator, single point] |
| COc1ccc(/C=N/NC(=O)CCn2c3ccccc3c3ccccc32)cc1O | inactive |
| CN(C)c1ccc(C(=O)N2CCN(c3cc(C(F)(F)F)nc4ccccc34)CC2)cc1 | inconclusive: 20.6 µM [inhibitor, single point] |
| Clc1ccc(/C=N/c2c(-c3ccco3)nc3ccccn23)cc1 | inactive |
| CCc1ccccc1NC(=S)NCCSc1ccc(Cl)cc1 | inconclusive: 16.4 µM [inhibitor, single point] |
| O=C(CNC(=O)c1cccc(F)c1)N/N=C/c1cc(Br)ccc1OCc1ccccc1 | inconclusive: 18.4 µM [inhibitor, single point] |
| CCOc1cccc(-c2cc(C(=O)N3N=C(C)CC3(O)C(F)F)c3ccccc3n2)c1 (stereo not given) | inconclusive: 18.3 µM [inhibitor, single point] |
| CC(/C=C/c1ccc(N(C)C)cc1)=N\N=C1\NC(=O)CC(C(=O)Nc2ccccc2)S1 (stereo not given) | inconclusive: 7.31 µM [activator, partial curve] |
| O=C(NCC1CCCO1)c1c(O)c2ccccc2[nH]c1=O (stereo not given) | inconclusive: 18.4 µM [activator, partial curve] |
| CCOC(=O)c1cc(-c2ccccc2)n(CC2CC(c3ccc(OC)cc3)=NO2)n1 (stereo not given) | inconclusive: 18.3 µM [inhibitor, partial curve, poor fit] |
| Cc1nc(SCc2cccc(F)c2)c2oc3ccccc3c2n1 | active: 20.6 µM |
| COc1ccc(-c2[nH]c(-c3ccc(SC)cc3)nc2SCC(=O)Nc2nccs2)cc1 | inconclusive: 29.1 µM [inhibitor, partial curve, poor fit] |

A draw from above in order of length of the SMILES, descending:

| SMILES | Potency |
| --- | --- |
| COc1ccc(-c2[nH]c(-c3ccc(SC)cc3)nc2SCC(=O)Nc2nccs2)cc1 | inconclusive: 29.1 µM [inhibitor, partial curve, poor fit] |
| CCOC(=O)C1(Cc2ccccc2)CCN(Cc2cnc(N3CCOCC3)s2)CC1 | inconclusive: 9.2 µM [inhibitor, partial curve, poor fit] |
| Cc1cccc(C2NC(c3cccc(C)c3)C(C)C(=O)C2C)c1 (stereo not given) | inactive |
